No constants are given. Whether binding was seen depends on the method and setting. In cells and extracts the contact can be indirect. Some entries that bind do so weakly or less than the wild type.
Target: Dicer (human (endogenous in Cal27)) (UniProt Q9UPY3)
Assay: co-IP; Cal27 cell lysates (sonication; 50 mM Tris-HCl pH 7.5, 130 mM NaCl, 1% Nonidet P-40, 0.5% sodium deoxycholate) incubated with normal rabbit IgG, anti-ADAR1, anti-Dicer, anti-Drosha, anti-Argonaute1, anti-Argonaute2 or anti-TRBP antibodies and Protein A/G PLUS-Agarose beads at 4 °C overnight; western blot

Sequences of proteins named here, by UniProt entry; tags and fusion partners are left off.
UniProt Q9UPY3: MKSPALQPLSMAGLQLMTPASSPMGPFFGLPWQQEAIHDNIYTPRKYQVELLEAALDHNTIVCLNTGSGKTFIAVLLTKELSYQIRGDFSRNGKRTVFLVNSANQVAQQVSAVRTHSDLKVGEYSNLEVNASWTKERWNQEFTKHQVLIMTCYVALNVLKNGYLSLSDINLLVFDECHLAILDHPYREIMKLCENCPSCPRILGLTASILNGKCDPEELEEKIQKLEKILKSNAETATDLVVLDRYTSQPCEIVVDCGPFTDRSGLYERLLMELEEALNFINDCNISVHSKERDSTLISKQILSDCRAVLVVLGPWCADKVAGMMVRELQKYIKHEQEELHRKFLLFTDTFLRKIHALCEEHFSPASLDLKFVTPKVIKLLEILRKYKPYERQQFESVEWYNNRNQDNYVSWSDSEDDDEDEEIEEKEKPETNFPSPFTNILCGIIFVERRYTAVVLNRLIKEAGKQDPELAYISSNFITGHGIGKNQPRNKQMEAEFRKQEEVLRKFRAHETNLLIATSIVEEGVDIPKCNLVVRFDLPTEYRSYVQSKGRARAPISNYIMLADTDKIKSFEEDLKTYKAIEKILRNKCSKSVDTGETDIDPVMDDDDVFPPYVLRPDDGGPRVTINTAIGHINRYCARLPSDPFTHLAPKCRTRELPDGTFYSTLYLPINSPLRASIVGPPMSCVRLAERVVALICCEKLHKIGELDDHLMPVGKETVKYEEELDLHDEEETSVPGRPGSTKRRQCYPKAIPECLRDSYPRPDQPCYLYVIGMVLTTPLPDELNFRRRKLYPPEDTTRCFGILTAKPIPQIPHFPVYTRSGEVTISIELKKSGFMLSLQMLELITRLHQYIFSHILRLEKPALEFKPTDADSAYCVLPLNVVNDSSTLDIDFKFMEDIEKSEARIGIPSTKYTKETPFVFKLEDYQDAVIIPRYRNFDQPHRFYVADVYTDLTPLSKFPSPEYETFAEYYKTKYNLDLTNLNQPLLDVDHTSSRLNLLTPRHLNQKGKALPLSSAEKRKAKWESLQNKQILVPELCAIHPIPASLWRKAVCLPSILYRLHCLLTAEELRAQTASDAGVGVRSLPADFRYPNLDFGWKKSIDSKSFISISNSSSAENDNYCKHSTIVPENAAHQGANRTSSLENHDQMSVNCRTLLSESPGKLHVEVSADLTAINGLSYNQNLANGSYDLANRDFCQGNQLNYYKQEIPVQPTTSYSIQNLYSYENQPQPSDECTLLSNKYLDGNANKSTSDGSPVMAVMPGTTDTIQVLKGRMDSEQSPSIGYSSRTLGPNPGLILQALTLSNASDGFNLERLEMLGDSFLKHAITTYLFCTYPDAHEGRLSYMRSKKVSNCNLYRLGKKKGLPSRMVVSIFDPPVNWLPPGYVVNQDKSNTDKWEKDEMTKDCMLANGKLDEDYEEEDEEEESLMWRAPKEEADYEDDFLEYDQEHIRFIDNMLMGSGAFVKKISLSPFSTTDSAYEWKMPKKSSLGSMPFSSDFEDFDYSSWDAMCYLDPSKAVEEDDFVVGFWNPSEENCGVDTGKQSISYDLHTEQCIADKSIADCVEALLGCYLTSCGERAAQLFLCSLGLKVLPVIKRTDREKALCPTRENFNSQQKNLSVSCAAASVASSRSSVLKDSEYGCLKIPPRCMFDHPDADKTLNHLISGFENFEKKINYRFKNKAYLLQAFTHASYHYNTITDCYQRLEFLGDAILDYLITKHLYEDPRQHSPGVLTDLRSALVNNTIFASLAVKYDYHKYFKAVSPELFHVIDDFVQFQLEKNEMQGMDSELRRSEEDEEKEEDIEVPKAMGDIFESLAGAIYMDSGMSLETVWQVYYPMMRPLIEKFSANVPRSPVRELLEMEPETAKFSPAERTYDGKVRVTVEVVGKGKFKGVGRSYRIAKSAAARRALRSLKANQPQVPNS

B1: ADAR1 (adenosine deaminase acting on RNA 1) (protein, UniProt P55265-5 1-931)
chain: MAEIKEKICDYLFNVSDSSALNLAKNIGLTKARDINAVLIDMERQGDVYRQGTTPPIWHLTDKKRERMQIKRNTNSVPETAPAAIPETKRNAEFLTCNIPTSNASNNMVTTEKVENGQEPVIKLENRQEARPEPARLKPPVHYNGPSKAGYVDFENGQWATDDIPDDLNSIRAAPGEFRAIMEMPSFYSHGLPRCSPYKKLTECQLKNPISGLLEYAQFASQTCEFNMIEQSGPPHEPRFKFQVVINGREFPPAEAGSKKVAKQDAAMKAMTILLEEAKAKDSGKSEESSHYSTEKESEKTAESQTPTPSATSFFSGKSPVTTLLECMHKLGNSCEFRLLSKEGPAHEPKFQYCVAVGAQTFPSVSAPSKKVAKQMAAEEAMKALHGEATNSMASDNQPEGMISESLDNLESMMPNKVRKIGELVRYLNTNPVGGLLEYARSHGFAAEFKLVDQSGPPHEPKFVYQAKVGGRWFPAVCAHSKKQGKQEAADAALRVLIGENEKAERMGFTEVTPVTGASLRRTMLLLSRSPEAQPKTLPLTGSTFHDQIAMLSHRCFNTLTNSFQPSLLGRKILAAIIMKKDSEDMGVVVSLGTGNRCVKGDSLSLKGETVNDCHAEIISRRGFIRFLYSELMKYNSQTAKDSIFEPAKGGEKLQIKKTVSFHLYISTAPCGDGALFDKSCSDRAMESTESRHYPVFENPKQGKLRTKVENGEGTIPVESSDIVPTWDGIRLGERLRTMSCSDKILRWNVLGLQGALLTHFLQPIYLKSVTLGYLFSQGHLTRAICCRVTRDGSAFEDGLRHPFIVNHPKVGRVSIYDSKRQSGKTKETSVNWCLADGYDLEILDGTRGTVDGPRNELSRVSKKNIFLLFKKLCSFRYRRDLLRLSYGEAKKAARDYETAKNYFKKGLKDMGYGNWISKPQEEKNFYLCPV
binding: binds

Source: article PMC6637647
